These are yes or no findings as the source states them, for the method shown. Some results given as binding are weak or reduced against the parent protein; the word gives no strength.
T1: CD206 antigen (prepared by the Department of Molecular Neuroscience, University of Toyama), immobilized on an ELISA plate (mouse) (UniProt Q61830)
T1 sequence (looked up): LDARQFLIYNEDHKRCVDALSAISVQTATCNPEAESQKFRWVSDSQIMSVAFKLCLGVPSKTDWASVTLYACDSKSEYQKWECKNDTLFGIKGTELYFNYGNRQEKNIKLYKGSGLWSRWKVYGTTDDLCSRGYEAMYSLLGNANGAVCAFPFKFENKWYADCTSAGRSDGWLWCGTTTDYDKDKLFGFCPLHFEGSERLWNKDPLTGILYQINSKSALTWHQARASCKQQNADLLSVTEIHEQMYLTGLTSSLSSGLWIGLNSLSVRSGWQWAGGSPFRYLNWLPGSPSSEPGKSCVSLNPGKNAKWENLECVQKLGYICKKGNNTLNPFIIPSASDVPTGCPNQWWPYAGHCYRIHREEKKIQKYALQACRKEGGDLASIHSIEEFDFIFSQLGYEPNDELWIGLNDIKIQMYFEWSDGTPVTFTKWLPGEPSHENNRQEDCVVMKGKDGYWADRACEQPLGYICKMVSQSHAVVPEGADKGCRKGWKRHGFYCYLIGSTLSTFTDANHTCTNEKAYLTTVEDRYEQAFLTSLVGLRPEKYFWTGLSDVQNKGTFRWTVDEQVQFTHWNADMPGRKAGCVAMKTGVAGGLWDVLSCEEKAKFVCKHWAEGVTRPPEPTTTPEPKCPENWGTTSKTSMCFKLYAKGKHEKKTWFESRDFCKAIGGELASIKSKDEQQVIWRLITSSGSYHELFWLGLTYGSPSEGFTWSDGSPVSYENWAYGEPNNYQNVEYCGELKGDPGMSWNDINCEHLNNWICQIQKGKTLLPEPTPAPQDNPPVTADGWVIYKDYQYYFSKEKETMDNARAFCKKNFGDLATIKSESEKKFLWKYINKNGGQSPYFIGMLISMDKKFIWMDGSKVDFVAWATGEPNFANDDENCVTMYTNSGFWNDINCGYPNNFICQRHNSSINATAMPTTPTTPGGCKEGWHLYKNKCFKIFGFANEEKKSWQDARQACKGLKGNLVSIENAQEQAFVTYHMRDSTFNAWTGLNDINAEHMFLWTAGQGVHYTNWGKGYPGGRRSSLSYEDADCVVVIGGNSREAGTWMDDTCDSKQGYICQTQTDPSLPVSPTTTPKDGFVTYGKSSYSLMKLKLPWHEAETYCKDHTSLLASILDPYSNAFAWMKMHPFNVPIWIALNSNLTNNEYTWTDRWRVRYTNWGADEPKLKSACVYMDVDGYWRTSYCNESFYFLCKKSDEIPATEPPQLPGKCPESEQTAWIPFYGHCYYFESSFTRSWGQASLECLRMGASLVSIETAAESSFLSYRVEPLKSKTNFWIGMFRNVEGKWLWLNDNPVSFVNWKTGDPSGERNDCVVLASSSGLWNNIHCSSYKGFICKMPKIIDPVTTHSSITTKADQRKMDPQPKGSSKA


Biological target: T1, CD206 antigen (prepared by the Department of Molecular Neuroscience, University of Toyama), immobilized on an ELISA plate (mouse)
Test: ELISA, CD206 antigen immobilized on plate

binding	Binder
binds	anti-CD206 antibody (No. 72) (antibody, V domains shown) VH: QVQLQQPGAELVRPGSSVKLSCKASGYTFTTYWMHWVKQRPIQGLEWIGNIDPSDSETHYNQKFKDKATLTVDKSSSTAYMQLNSLTSEDSAVYYCARGDGYYVYFAYWGQGTTLTVSS VL: EIVLTQSPALMAASPGEKVTITCSVSSSISSSNLHWYQQKSETSPKPWIYATSNLASGVPVRFSGSGSGTSYSLTISSMAAEDAATYFCQQWSSFPLTFGAGTKLELK
binds	anti-CD206 antibody (No. 35) (antibody, V domains shown) VH: QVQLQQPGAELVKPGASVKVSCKASGYTFTTYWMHWVKQRPGQGLEWIGRIHPSDSDSNYNQKFKGKATLTVDKSSSTAYMQLSSLTSEDSAVYYCAIGRGFAYWGQGTLVTVSA VL: DIVLTQSPASLAVSLGQRAAISCRASESVDNYGNSFMHWYQQKPGQPPKLLIYRASNLESGIPARFSGSGSRTDFTLTINPVEADDVATYYCQQGNEDPYTFGGGTKLEIK
binds	anti-CD206 antibody (No. 54) (antibody, V domains shown) VH: EVQLVESGGGLVQPKGSLKLSCAASGFSFNTYTMNWVRQAPGKGLEWVARIRSKSNNYETYYADSVKDRFTISRDDSESMLYLQMNNLKTEDTAMYYCVSPDSDSWFAYWGQGTLVTVSA VL: DIQMNQSPSSLSASLGDTITIACHASQNINVWLSWYQQKPGNIPKLLIYKASNLHTGVPSRFSGSGSGTGFTLTISSLQPEDIATYYCQQGQSYPLTFGGGTKLEIK
binds	anti-CD206 antibody (No. 44) (antibody, V domains shown) VH: QVQLQQSGAELVRPGTSVKVSCKASGYAFTDYLIEWVKQRPGQGLEWIGVINPGRGGTNYNEKFKGKATLTADKSSSTAYMQLSSLTSEDSAVYFCARYYGRSFGYFDVWGTGTTVTVSS VL: DIQMTQSPASQSASLGESVTITCLASQTIGTWLAWYQQKPGKSPQLLIYAATSLADGVPSRFSGSGSGTKFSFKISSLQAEDFVSYYCQQLYSPPLTFGAGTKLELK
binds	anti-CD206 antibody (No. 83) (antibody, V domains shown) VH: QVQLLQSGAELVRPGTAVKMSCKASEYTFTNYWIGWARQRPGHGLEWIGDIYPGGGYINYNEKFKGKATLTADKSSSTVYMQFSSLTSEDSAIYYCARGGSNYVGHFDYWGQGTTLTVSS VL: DIQMTQTTSSLSASLGDRVTISCRASQDISNYLNWYQQKPDGTVKLLIYYTSILHSRVPSRFSGSGSGTDYSLTISNLEQEDIATYFCQHGHTLPWTFGGGTKLEIK
binds	anti-CD206 antibody (No. 10) (antibody, V domains shown) VH: QVQLQQPGAELVRPGSSVKLSCKASGYTFISYWMDWVKQRPGQGLEWIGNIFPSDSETHYNQKFRDKATLTVDKSSSTASIHLSSLTSEDSAVYYCGRRDSSGWIDYWGQGTTLTVSS VL: DIQMTQTTSSLSASLGDRVTISCRASQDISNYLNWYQQKPDGTVKLLIYYTSRFHSGVPSRFSGSGSGTDYSLTIHNVEQEDIATYFCQQSSMLPFTFGSGTKLEMK
binds	anti-CD206 antibody (No. 47) (antibody, V domains shown) VH: QVQLQQPGAELVRPGSSVKLSCKASGYTFTSYWMDWVKQRPGQGLEWIGNIYPSDSETHYNQKFKDRATLTVDKSSTTAYMQLSSLTSEDSAVYYCTRRDSSGWIDYWGQGTTLTVSS VL: DIQMTQTTSSLSASLGDRVTISCRASQDISNYLNWYQQKPDGTVKLLIYYTSRLHSGVPSRFSGRGSGTDYSLTISNLEQEDIATYFCQQGNTLPFTFGSGTQLEIK
binds	anti-CD206 antibody (No. 27) (antibody, V domains shown) VH: QVQLQQPGAELVKPRASVKLSCRASGYIFISYWMQWVKQRPGQGLEWIGEIDPSDSYINYNQKFKGKASLTVDTSSNTAYMQLSSLTSEDSAVYYCATGDMGDDFYAMDYWGQGTSVTVSS VL: DIVMNQDELSNPVTSGESVSISCRSSKSLLYKDGKTYLNWFLQRPGQSPQLLIYLMSTRASGVSDRFSGSGSGTDFTLEISRVKAEDVGVYYCQQLVEYPFTFGGGTKLEIK
